For some assays here: Where a protein sequence is shown, tags need not be part of it. For some assays here: For at least one entry, the source does not settle the construct or the ends of the probe. For some assays here: A weaker result is weaker than the reference pair of the same experiment. For some assays here: At least one result comes from cells or an extract, where the contact may be indirect.

Protein sequences, listed by entry. Tags and fused reporters are not part of them. Residues count along the entry.
UniProt P02769, 25-607: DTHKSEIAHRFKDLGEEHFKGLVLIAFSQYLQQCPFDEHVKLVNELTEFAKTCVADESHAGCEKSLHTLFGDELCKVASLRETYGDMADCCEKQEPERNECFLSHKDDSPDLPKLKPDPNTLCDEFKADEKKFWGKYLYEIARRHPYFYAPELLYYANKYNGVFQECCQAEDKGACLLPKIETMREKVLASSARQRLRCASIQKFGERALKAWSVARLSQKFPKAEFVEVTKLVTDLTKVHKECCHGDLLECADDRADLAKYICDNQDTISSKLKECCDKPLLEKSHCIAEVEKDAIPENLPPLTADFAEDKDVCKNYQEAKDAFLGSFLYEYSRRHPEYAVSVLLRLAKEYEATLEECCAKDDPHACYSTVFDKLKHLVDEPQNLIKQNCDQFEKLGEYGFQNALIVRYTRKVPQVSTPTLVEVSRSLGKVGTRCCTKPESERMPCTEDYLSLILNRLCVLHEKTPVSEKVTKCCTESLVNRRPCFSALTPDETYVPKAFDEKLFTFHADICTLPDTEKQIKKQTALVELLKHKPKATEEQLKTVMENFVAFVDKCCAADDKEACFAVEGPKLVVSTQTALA

The target in data set [1] is T1, PTK7 (recombinant, R&D Biosystems NC2081082) (UniProt Q13308).
T1 sequence (looked up): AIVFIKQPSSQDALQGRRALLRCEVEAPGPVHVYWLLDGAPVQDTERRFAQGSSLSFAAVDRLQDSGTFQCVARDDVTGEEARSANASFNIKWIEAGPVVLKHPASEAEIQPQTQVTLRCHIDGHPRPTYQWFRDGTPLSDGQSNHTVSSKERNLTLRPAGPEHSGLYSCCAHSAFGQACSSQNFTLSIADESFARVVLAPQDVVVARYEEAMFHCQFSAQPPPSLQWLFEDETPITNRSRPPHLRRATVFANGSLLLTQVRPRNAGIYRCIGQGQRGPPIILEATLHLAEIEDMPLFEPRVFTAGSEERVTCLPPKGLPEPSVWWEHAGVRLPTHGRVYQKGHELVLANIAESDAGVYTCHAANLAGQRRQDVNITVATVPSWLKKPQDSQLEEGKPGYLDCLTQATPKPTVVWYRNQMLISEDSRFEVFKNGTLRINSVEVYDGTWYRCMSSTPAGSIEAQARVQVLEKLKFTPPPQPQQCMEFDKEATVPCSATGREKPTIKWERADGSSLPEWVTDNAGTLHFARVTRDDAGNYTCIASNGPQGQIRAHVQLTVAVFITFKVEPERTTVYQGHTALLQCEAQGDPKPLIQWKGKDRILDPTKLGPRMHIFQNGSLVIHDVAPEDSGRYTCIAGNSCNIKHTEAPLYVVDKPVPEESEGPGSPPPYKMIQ
Description: covalent biotin transfer, SA-HRP blot. The settings on record: among highest labeling efficiencies, 5 mM MgCl2, clicked to azide-tethered N-acyl sulfonamide biotin electrophile 1, DPBS with 5 mM MgCl2, 4.5 g/L glucose, pH 7.4, 37 C, 1 h (cells: plus 0.1 mg/mL yeast tRNA), read-out is proximity-driven covalent labeling, no equilibrium Kd measured, commercial protein, residues 31-703, label: transferable biotin, folded or branched DNA.

A further data set has as its target PTK7 (UniProt Q13308). Briefly: covalent biotin transfer on cells, streptavidin pulldown and anti-PTK7 immunoblot. The settings on record: 1 h; T27 replaced by 5-octadiynyl-dU, clicked to azide-tethered N-acyl sulfonamide biotin electrophile 1; DPBS with 5 mM MgCl2, 4.5 g/L glucose, pH 7.4, 37 C, 1 h (cells: plus 0.1 mg/mL yeast tRNA); read-out is proximity-driven covalent labeling, no equilibrium Kd measured; protein on the cell surface; label: transferable biotin; folded or branched DNA. In general terms: In western blotting, separated proteins are transferred to a membrane and probed.

Data set [2] addresses Bovine serum albumin (bovine) (UniProt P02769). Description: covalent biotin transfer, SA-HRP blot. The settings on record: off-target labeling only at or above 500 nM aptamer, 1 uM BSA; T27 replaced by 5-octadiynyl-dU, clicked to azide-tethered N-acyl sulfonamide biotin electrophile 1; DPBS with 5 mM MgCl2, 4.5 g/L glucose, pH 7.4, 37 C, 1 h (cells: plus 0.1 mg/mL yeast tRNA); read-out is proximity-driven covalent labeling, no equilibrium Kd measured; commercial protein; label: transferable biotin; folded or branched DNA.

The target of data set [3] is PTK7 (endogenous) (human (Jurkat, HepG2 cells)) (UniProt Q13308). Description: covalent biotin transfer on cells, SA-PE flow cytometry. Conditions: Jurkat and HepG2, >10-fold MFI over PTK7-negative HEK293T; T27 replaced by 5-octadiynyl-dU, clicked to azide-tethered N-acyl sulfonamide biotin electrophile 1; DPBS with 5 mM MgCl2, 4.5 g/L glucose, pH 7.4, 37 C, 1 h (cells: plus 0.1 mg/mL yeast tRNA); read-out is proximity-driven covalent labeling, no equilibrium Kd measured; protein on the cell surface; label: transferable biotin; folded or branched DNA.

Take “ATCTAACTGCTGCGCCGCCGGGAAAATACTGTACGGTTAGA [sgc8c(8)-1]”: the binding result in data set [1] (T8 replaced by 5-octadiynyl-dU) is “binds”.
Regarding “ATCTAACTGCTGCGCCGCCGGGAAAATACTGTACGGTTAGA [sgc8c(27)-1]”, the binding result with PTK7 is recorded as “binds”; in data set [2] it was “binds more weakly”; in data set [3] it was “binds”.
Regarding “ATCTAACTGCTGCGCCGCCGGGAAAATACTGTACGGTTAGA [sgc8c(30)-1]”, the binding result in data set [1] (T30 replaced by 5-octadiynyl-dU) is listed as “binds”.

The record behind these values is article PMC10401710.
